# Primary screen of a compound library

By UniProt entry, the sequences of proteins in these tests, tags left out. Residues count along the entry.
UniProt Q4DA54, 1-478: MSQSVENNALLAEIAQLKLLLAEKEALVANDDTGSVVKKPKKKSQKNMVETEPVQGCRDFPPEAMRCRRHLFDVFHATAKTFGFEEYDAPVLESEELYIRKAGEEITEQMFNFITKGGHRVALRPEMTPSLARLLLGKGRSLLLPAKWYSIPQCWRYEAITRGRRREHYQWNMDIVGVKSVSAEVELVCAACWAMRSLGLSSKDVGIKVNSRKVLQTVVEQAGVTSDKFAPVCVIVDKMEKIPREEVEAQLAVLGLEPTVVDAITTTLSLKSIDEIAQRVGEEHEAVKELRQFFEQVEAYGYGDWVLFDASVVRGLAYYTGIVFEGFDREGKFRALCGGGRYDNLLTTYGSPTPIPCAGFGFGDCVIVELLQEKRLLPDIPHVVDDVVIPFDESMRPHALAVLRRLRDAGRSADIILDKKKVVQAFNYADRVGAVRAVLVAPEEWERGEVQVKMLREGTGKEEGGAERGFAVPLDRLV
UniProt P9WNZ1, whole entry: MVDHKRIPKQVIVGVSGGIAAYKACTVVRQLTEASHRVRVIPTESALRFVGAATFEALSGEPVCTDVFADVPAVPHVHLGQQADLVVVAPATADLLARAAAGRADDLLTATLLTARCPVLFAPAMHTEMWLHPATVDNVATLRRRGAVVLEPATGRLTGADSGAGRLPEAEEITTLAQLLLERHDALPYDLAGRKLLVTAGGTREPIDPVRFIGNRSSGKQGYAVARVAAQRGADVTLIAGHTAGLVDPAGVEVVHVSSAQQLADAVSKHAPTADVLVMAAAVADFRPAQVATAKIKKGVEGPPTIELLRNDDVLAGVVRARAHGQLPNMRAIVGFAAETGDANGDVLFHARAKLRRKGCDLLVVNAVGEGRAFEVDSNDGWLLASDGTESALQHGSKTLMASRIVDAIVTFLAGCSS
UniProt A4I591, 1-473: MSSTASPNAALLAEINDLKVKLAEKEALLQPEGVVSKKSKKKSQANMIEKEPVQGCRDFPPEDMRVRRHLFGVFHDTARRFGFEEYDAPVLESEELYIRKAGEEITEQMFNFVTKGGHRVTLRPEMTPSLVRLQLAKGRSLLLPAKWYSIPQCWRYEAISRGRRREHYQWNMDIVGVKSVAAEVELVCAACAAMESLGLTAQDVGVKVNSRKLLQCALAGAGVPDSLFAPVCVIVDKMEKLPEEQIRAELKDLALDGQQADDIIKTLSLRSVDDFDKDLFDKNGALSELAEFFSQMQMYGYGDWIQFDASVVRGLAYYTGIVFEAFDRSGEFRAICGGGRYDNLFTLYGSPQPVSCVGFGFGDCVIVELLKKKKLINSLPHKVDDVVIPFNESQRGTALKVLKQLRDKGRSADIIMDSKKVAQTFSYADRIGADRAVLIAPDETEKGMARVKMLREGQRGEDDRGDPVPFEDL

Data taken from ChEMBL document CHEMBL3988442, “University of Dundee, Small-Polar-MMV Screening Library” (2021).

A: 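Histidine-tRNA ligase, Trypanosoma cruzi CL Brener (UniProt Q4DA54). Enzyme assay of histidyl-tRNA synthetase; the read-out is not stated. Compounds at 30 µM. Higher reads as stronger inhibition (inferred: compounds with an IC50 in retests scored well above the rest). Size under these conditions: about 69,000 compounds, about 31 of them at 50% or above in at least one test.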
B: 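Cell assay of Leishmania donovani living inside macrophages; the read-out is not stated. Concentration: 30 µM. The record gives no direction; compounds that gave an IC50 in retests scored well above the rest, so higher reads as stronger inhibition. Size under these conditions: about 69,000 compounds, about 1,000 of them at 50% or above in at least one test.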
C: 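Assay of Toxoplasma gondii numbers, read through their beta-galactosidase reporter with a colour substrate. Compounds at 10 µM. The record gives no direction; the compounds picked for IC50 retests had high values, so higher reads as fewer parasites. About 67,000 compounds were tested under these conditions; 0.38% (about 260) showed 50% or more at least once.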
D: 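Coenzyme A biosynthesis protein CoaBC, Mycobacterium tuberculosis (UniProt P9WNZ1). Enzyme assay of CoaBC with a phosphate dye (Biomol Green) read at 650 nm. Tested at 30 µM. Higher reads as stronger inhibition, judged from the few compounds that gave an IC50. Most strong results did not repeat in a second test. Size under these conditions: about 67,000 compounds, about 40 of them at 50% or above in at least one test.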
E: 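Enzyme assay of histidyl-tRNA synthetase; the read-out is not stated. Target: Histidine-tRNA ligase, Leishmania infantum (UniProt A4I591). Tested at 30 µM. Higher reads as stronger inhibition (inferred: compounds with an IC50 in retests scored well above the rest). The assay is labelled LdHisRS but filed under L. infantum. Of about 69,000 compounds tested this way, about 410 (0.6%) reached 50% or more in at least one test.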

The filed quantity is “Percent Effect” (%).
The controls that fix the scale are not given in the record; negative values are as filed.
This is an unselected part of the compounds tested.
Two or more numbers in one place are separate tests of the same structure; such repeats can differ widely.
A dash means the value is not listed here; it may have been measured.

| structure | A | B | C | D | E |
|---|---|---|---|---|---|
| `CNS(=O)(=O)c1cccc(C(C)NCc2ccc(F)c(F)c2)c1` (stereo not given) | -3.448% | 11.11% | -1.768% | 11.9% | 4.464% |
| `CC(NC(=O)NCCCc1n[nH]c(N)c1C#N)c1ccc(F)cc1` (stereo not given) | 5.714% | 31.09% | -1.628% | -1.575% | 10.17% |
| `CC(=O)N1CCN(C[C@H]2CC[C@@H](Cc3ccc4c(c3)OCO4)O2)CC1` | 2.703% | -6.034% | 2.425% | 7.727% | 21.92% |
| `O=C(c1ccccn1)N1CCCC(c2ncncc2-c2ccncc2)C1` (stereo not given) | 0% | -13.38% | 1.75% | 0.6196% | 0% |
| `CCOC(=O)c1nc(CC(=O)Nc2ccc3cc[nH]c3c2)no1` | 4.663% | 38.43% | 0.9278% | -11.72% | -14.61% |
| `COCC(=O)N1CCN(C)CC(Cc2cc(N(C)C)ncn2)C1` (stereo not given) | 8.046% | -2.448% | -6.581% | -4.369% | 11.43% |
| `COc1ccccc1OCC(=O)NCC(C)(O)C1CC1` (stereo not given) | 2.41% | -19.32% and -2.377% | -20.89% | 0.5089% | 23.08% |
| `CC(=O)N1N=C(c2ccccc2)OC1C(=O)NCCC1=CCCCC1` (stereo not given) | 3.226% | -21.58% | 4.019% | 8.508% | 8.571% |
| `CC(C)OCCN1CCC(Nc2nccnc2C#N)CC1` | 4.02% | 19.52% | 29.63% | -6.149% | 5.882% |
| `COCC(C)(C#N)NC(=O)COc1ccccc1Br` (stereo not given) | 4.865% | 25.69% | 2.307% | -5.128% | 11.97% |
| `CN(CC(F)(F)F)C(=O)Cn1cc(NC(=O)C(C)(C)C)cn1` | 3.333% | 11.6% | 8.523% | 5.447% | 13.51% |
| `[H][C@]12CC(COCc3ccccn3)C[C@]1([H])N(C(=O)c1ccc[nH]1)CCO2` (stereo not given in full) | - | 11.7% | -1.025% | - | - |
| `CN(C)S(=O)(=O)c1ccc(CN2CCCC2c2ccccc2)o1` (stereo not given) | -4.545% | 4.187% | -7.847% | 6.511% | 34.85% |
| `O=C(C1CC(=O)N(c2ccccc2)C1)N1CCC2(CC1)OCCO2` (stereo not given) | 5.464% | 20.26% | -3.549% | 2.832% | -1.754% |
| `COCC(C)(O)CNC(=O)Nc1cccc(OC)c1OC` (stereo not given) | 0% | -0.05343% and 1.927% | 0.3861% | 1.48% | 3.478% |
| `CCC(CO)N(Cc1ccccn1)C(=O)c1ccc(CSC)o1` (stereo not given) | 0% | 18.51% | 0.4964% | 1.285% | 17.71% |
| `CN1N=C(C(=O)N2CCCC(CCc3ccccc3)C2)CCC1=O` (stereo not given) | 3.922% | 9.482% | 3.767% | -0.9756% | 14.4% |
| `CCSc1ccc(C(=O)N2CC[C@](C)(O)[C@H](C)C2)s1` | 3.483% | 6.312% | -15.67% | 6.914% | 5.594% |
| `CC(C)c1ccc(OCCC(=O)N(C)CC(N)=O)cc1` | 3.922% | 24.62% | 3.725% | -0.638% | 16.67% |
| `Cc1cc(C)n(-c2cncc(NCCC(=O)NC(C)C)n2)n1` | 1.205% | 22.37% and 41.35% | -21.59% | 3.053% | 20.51% |
| `c1cn(-c2ccc(CN3CCCC3)cc2)c(-c2cc3n(n2)CCNC3)n1` | 13.92% | 9.036% | -2.781% | 5.288% | 22.92% |
| `COc1ccc(COCC(O)CNC(=O)c2cc(C)cc(C)c2)cc1` (stereo not given) | -12.41% | 32.58% | -6.13% | 0.2611% | 13.51% |
| `CC(C)(C(=O)NCCS(N)(=O)=O)c1cccc(Br)c1` | 3.448% | 18.48% | 3.544% | 7.278% | 11.69% |
| `Cc1c(C(=O)NCCC(C)C)nnn1-c1cccc2c1CCN(C)C2` | -45% | -27.76% | 1.047% | -5.372% | 13.39% |
| `O=C(O)C(F)(F)F.[H][C@@]12CCN(Cc3ccc(OC)cc3)[C@]1([H])CC[C@H](C(=O)NCC1CC1)O2` | - | 2.688% | -4.233% | - | - |
| `Cc1nc(NCCc2noc(C3CCCO3)n2)c2sccc2n1` (stereo not given) | 11.11% | 13.62% | -3.085% | 9.091% | 18.09% |
| `Cc1nc(N[C@H]2COC[C@@H]2N2CCCC2)c2cnn(C)c2n1` | 12.71% | 8.427% | -3.885% | 8.738% | 26.51% |
| `O=C(NCc1nncn1C1CC1)C1(c2ccc(F)cc2)CCCC1` | 2.532% | -23.23% | -6.404% | 6.731% | 8.333% |
| `CCC(=O)Nc1cccc(OCC(=O)N[C@@H]2C[C@H]3CC[C@@H]2C3)c1` | 6.468% | - | - | 4.391% | 20.48% |
| `O=C(NC1(c2nccs2)CCCC1)c1[nH]nc(C2CC2)c1Cl` | 0.5405% | -15.71% | 8.512% | 10.68% | 15.38% |
| `Cc1ccc2nc(CN3CCC(O)(CN4CCCC4)CC3)cc(O)c2c1` | 0.5587% | 3.044% | 15.5% | 0.4032% | 7.895% |
| `CC(C)Nc1cccc(CNC(=O)N2CCCC2)c1` | 0.4425% | 7.979% | 1.68% | 8.178% | 16.81% |
| `O=C(CN1CCCS1(=O)=O)Nc1ccc(OC2CCCC2)c(Cl)c1` | 1.064% | 19.38% | -3.565% | 2.008% | 13.43% |
| `Cc1cccc(CN2CCc3nnc(CN(C)C)n3CC2)n1` | 1.942% | -7.282% | -14.53% | 2.96% | 5.769% |
| `Cc1noc(CCCC(=O)N2CCNC(=O)C2)n1` | 3.704% | 12.24% | 1.856% | 6.503% | 7.843% |
| `COc1cc(CN2CC[C@H](NC(C)=O)[C@@H](O)CC2)ccc1F` | -3.333% | -6.085% and 2.838% | 13.37% | -3.874% | -4.124% |
| `Cc1ccccc1C(=O)N1C[C@@H]2CCN(c3cccnc3)C[C@@H]2C1` | 1.97% | - | - | 3.046% | 17.65% |
| `O=C(O)C(c1ccc2[nH]ccc2c1)N1CCN(c2cnccn2)CC1` (stereo not given) | 0% | 19.41% | 0.2887% | 6.653% | 12.12% |
| `Cn1nccc1-c1ccc2nc(C3CCNCC3)nn2c1` | -0.9524% | -3.055% | 24.03% | 6.042% | -1.389% |
| `[H][C@]12CCN(C(=O)CC3CC3)C[C@@]1([H])OCCN(Cc1csc(C)n1)C2` | - | 3.2% | 2.438% | - | - |
| `Cc1cc(NC(=O)CN2CCn3c(nnc3C3CC3)C2)n(C)n1` | 1.901% | -19.24% | -12.7% | -3.191% | 4% |
| `CC(=O)N1CCCN(C(C(=O)O)c2cccc(C)c2C)CC1` (stereo not given) | -0.431% | -7.486% | 0.3546% | 2.662% | 6.329% |
| `COc1cc(N2CCN(Cc3ccsc3)C(CCO)C2)nc(N)n1` (stereo not given) | 1.818% | 32.72% | -19.79% | 1.703% | 11.11% |
| `O=C(c1ccncc1)N1C[C@@H](OCc2cccnc2)[C@H]2OCCC[C@H]21` | 10.74% | - | - | 4.202% | 3.636% |
| `CCOc1c(CNC2CSCCSC2)cccc1OC` | -2.051% | 21.82% | -1.609% | -4.822% | 6.122% |
| `O=C(Cn1cc(-c2ccccc2)ncc1=O)Nc1nnc[nH]1` | -0.8264% | 25.71% | -1.409% | 10.53% | 22.86% |
| `O=C(O)C(F)(F)F.O=C(O)C(F)(F)F.[H][C@@]12CCN(CCN3CCCCC3)C[C@]1(C(=O)N1CCOCC1)CCO2` | - | 14.1% | -3.586% | - | - |
| `COc1cc(-c2cc(-c3ccn(C)c3)nc(N)c2C#N)cc(OC)c1O` | 10.5% | 40.35% | -6.181% | 14.29% | 25% |
| `Cc1cc(C)n(CCC2CC(=O)Nc3cc4[nH]ncc4cc32)n1` (stereo not given) | 10.39% | 18.11% | 8.221% | 3.171% | 23.33% |
| `CNc1nc2c(c(C(=O)N3CCCC3)n1)CN(Cc1ccco1)CC2` | 10.05% | -17.57% | -28.64% | 4.362% | 20.21% |
| `COCCc1noc(CNCC2CCCN2c2cccnn2)n1` (stereo not given) | 2.642% | 20.51% | -0.05907% | -4.872% | 29.33% |
| `c1cnc(N2C[C@H]3CCN(CCN4CCCC4)C[C@H]3C2)cn1` | 7.538% | - | - | 2.847% | 25.74% |
| `CC(C)n1nc(Cn2cccc2)c2c1CN(Cc1ccoc1)C2` | 12.27% | - | - | - | 25.64% |
| `Cc1nc(C2CCCN2C(=O)CN(C)Cc2ccccc2)no1` (stereo not given) | 2.469% | 14.46% | -13.17% | -1.966% | 12.9% |
| `CN(Cc1ccsc1)C(=O)c1ccc(F)c(NS(C)(=O)=O)c1` | 9.091% | 17.3% | -2.567% | - | 25.71% |
| `O=C1CC2(CCN(Cc3ccoc3)C2)CN1c1cncnc1` (stereo not given) | 2.479% | 7.776% | 1.011% | 0.8403% | 18.18% |
| `[H][C@@]12CS(=O)(=O)C[C@]1([H])N(Cc1ccc(F)c(C)c1)CCN2C(=O)C(C)C` | - | 24.8% | -5.176% | - | - |
| `COC(=O)c1cc(OCC2CCC2)cc(C(=O)N[C@H]2CCCC[C@@H]2O)c1` | 3.659% | 10.82% | -17.65% | -1.646% | 15.66% |
| `CCN(C)CC(C)Cn1cnc(-c2ccccc2)c1C` (stereo not given) | 4.819% | 48.8% | 1.079% | -0.2475% | 18% |
| `COc1ccc(OCc2nc(C(=O)N3CCC(NC(C)=O)C3)co2)cc1` (stereo not given) | 0.5025% | 4.243% | -10.46% | -1.327% | -37.6% |
| `CC(=O)NCCC1CCCCN1C(=O)c1cccc(CCC(C)(C)O)c1` (stereo not given) | 9.091% | -6.405% | -6.624% | 2.357% | 20.21% |
| `CC(C)(C(=O)NCC(=O)N1CCCC1)c1ccccc1F` | 3.509% | -34.93% | 5.336% | 1.722% | 14.16% |

3 of the entries, repeated:

CC(=O)N1N=C(c2ccccc2)OC1C(=O)NCCC1=CCCCC1 (stereo not given) gave A: 3.226%; B: -21.58%; C: 4.019%; D: 8.508%; E: 8.571%.
O=C(Cn1cc(-c2ccccc2)ncc1=O)Nc1nnc[nH]1 gave A: -0.8264%; B: 25.71%; C: -1.409%; D: 10.53%; E: 22.86%.
O=C1CC2(CCN(Cc3ccoc3)C2)CN1c1cncnc1 (stereo not given) gave A: 2.479%; B: 7.776%; C: 1.011%; D: 0.8403%; E: 18.18%.